A short description of this experiment: qHTS Assay for Modulators of Lamin A Splicing. Particulars: HeLa LMNA splicing GFP/RFP minigene ratio, 48 h. The method in brief:
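Read-out is the ratio of GFP to DsRed2 object intensity, acquired by 488 nm laser-scanning cytometry on HeLa lamin A-EGFP minigene reporter cells. Compound incubation 48 hrs at 37 °C in Opti-MEM with 2% FBS; DMSO 0.5% final.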
A general note: In qHTS, concentration-response curves come from the screen itself.

[1] abbreviates: measured here: GFP splicing reporter channel.
[2] abbreviates: measured here: RFP viability control channel.

From PubChem BioAssay AID1487 (National Center for Advancing Translational Sciences (NCATS), 2009) come the findings set out here.

What is called AC50 is the concentration at which the activity in the assay is half-maximal.

Where “and” joins values, the source holds several entries; their conditions need not be identical. Identical values can stand only once. This is one part of the list. Shown are side measurements of this screen, not its main read-out; they come without a call. Compounds called inactive in the main read-out are mostly missing here. Potencies come from curve fits of mixed quality, noted in brackets.

For the compound `CC1CC2(C)Oc3ccccc3CC2C(C)C1CNCCCN(C)C` (stereo not given), the AC50 under setting [1] was 25.1 µM [falling, single point].
On to `O=C(NNc1ccc(C(F)(F)F)cc1[N+](=O)[O-])c1ccc(NS(=O)(=O)c2ccc(F)cc2)cc1`, for which the AC50 by setting is: under setting [1], 35.5 µM [falling, single point]; under setting [2], 35.5 µM [falling, single point].
Take `CCc1ccc(C(=O)CN(C#N)c2nc(C)cc(C)n2)cc1`: the AC50 is 25.1 µM [falling, single point] under setting [1] and 35.5 µM [falling, single point] under setting [2].
For `c1ccc2cc3c(NCCN4CCOCC4)ccnc3cc2c1`, the half-maximal activity concentration (AC50) was 35.5 µM [falling, single point] under setting [1] and 15.8 µM [falling, single point] under setting [2].
Regarding `Cc1ccc(O)c(C(=O)c2cnc3c(c2)c(C)nn3-c2ccccc2)c1`, the concentration at half-maximal activity (AC50) reads like this: under setting [1], 35.5 µM [rising, single point]; under setting [2], 35.5 µM [rising, single point].
As for `COc1ccc(OC)c(C(=O)c2coc3ccc(O)cc23)c1`, the AC50 under setting [1] is 1.58 µM [rising, partial curve, poor fit] and the AC50 under setting [2] was 3.98 µM [rising, partial curve].
As to `CCOC(=O)N1CCN(Cc2nc(-c3ccc(C)cc3)no2)CC1`, the concentration at half-maximal activity (AC50) under setting [2] is 11.2 µM [rising, single point].
With `O=C(CSc1nc2c([nH]c3ccccc32)c(=O)n1-c1cccc(Cl)c1)N1CCOCC1`, the AC50 was 2 µM [falling, partial curve] under setting [1]; 2.82 µM [falling, partial curve] and 25.1 µM [falling, single point] under setting [2].
For `Cc1ccc(Cn2cnc3ccccc32)cc1C`, the AC50 runs as follows: under setting [1], 0.112 µM [rising, partial curve]; under setting [2], 12.6 µM [rising, partial curve].
Turning to `O=C(CCCn1c(SCC(=O)NCCc2ccccc2)nc2ccccc2c1=O)NCC1CCCO1` (stereo not given), the AC50 by setting is: under setting [1], 0.00891 µM [falling, full curve, poor fit]; under setting [2], 0.00708 µM [falling, full curve, poor fit].
As to `CCCCN(CC)S(=O)(=O)c1ccc(C(=O)Nc2nnc(CSC)o2)cc1`, the concentration at half-maximal activity (AC50) was 7.94 µM [falling, partial curve] under setting [1] and 20 µM [falling, partial curve] under setting [2].
Regarding `O=C(c1cc(-c2ccc3c(c2)OCO3)on1)N1CCN(c2ccccc2)CC1`, the AC50 under setting [1] was 15.8 µM [rising, partial curve, poor fit] and the AC50 under setting [2] is 25.1 µM [rising, single point].
In the case of `CCc1ccc(OCC(=O)Nc2cc(S(=O)(=O)CC)ccc2O)cc1`, the AC50 runs as follows: under setting [1], 22.4 µM [rising, single point]; under setting [2], 22.4 µM [rising, single point].
In the case of `COc1ccccc1/C=C/C(=O)Nc1ccc2c(c1)OCCO2`, the AC50 runs as follows: under setting [1], 11.2 µM [rising, single point]; under setting [2], 22.4 µM [rising, single point].
Turning to `O=[N+]([O-])c1cc(F)c2cccnc2c1O`, the AC50 reads like this: under setting [1], 35.5 µM [falling, single point]; under setting [2], 6.31 µM [falling, partial curve].
As for `Cn1c(N)c(C(=O)COC(=O)c2ccnc3ccccc23)c(=O)n(C)c1=O`, the AC50 under setting [2] is 2.51 µM [falling, partial curve, poor fit].
In the case of `COCC(C)n1c(C)cc(C(=O)CSc2cc(C)c3ccccc3n2)c1C` (stereo not given), the AC50 under setting [1] was 11.2 µM [rising, single point] and the AC50 under setting [2] was 20 µM [rising, single point].
In the case of `O=C(Nc1ccc2nc3n(c(=O)c2c1)CCCCC3)c1ccccn1`, under setting [2], the half-maximal activity concentration (AC50) is 28.2 µM [rising, single point].
Turning to `Cc1ccc(NC(=O)Cn2ccsc2=N)cc1S(=O)(=O)N(C)C`, the AC50 reads like this: under setting [1], 20 µM [rising, partial curve]; under setting [2], 3.16 µM [rising, partial curve, poor fit].
On to `O=C(Nc1ccc2oc(-c3ccc4ccccc4c3)nc2c1)c1ccc2c(c1)OCCO2`, for which the AC50 under setting [2] was 5.62 µM [rising, partial curve].
For `CCc1ccccc1N(C)S(=O)(=O)c1ccc2[nH]cc(C(=O)N3CCc4ccccc43)c(=O)c2c1`, the AC50 was 35.5 µM [rising, single point] under setting [1] and 35.5 µM [rising, single point] under setting [2].
Turning to `Nc1nc(SCc2nc3sc4c(c3c(=O)[nH]2)CCCC4)n[nH]1`, the AC50 under setting [2] is 11.2 µM [rising, partial curve, poor fit].
On the same count and under the same terms, then `O=[N+]([O-])c1cc(/C=N/OCc2c(Cl)cccc2Cl)ccc1N1CCOCC1`, with 11.2 µM [rising, partial curve, poor fit].
For `O=C(CN1N=C(c2ccccc2)CCC1=O)NCc1ccccc1`, the AC50 under setting [1] is 3.16 µM [falling, single point] and the AC50 under setting [2] is 3.98 µM [falling, single point].
For the compound `CC(/C=C/c1ccccc1)=N\NC(=O)Cn1nc(C)cc1C`, the AC50 under setting [1] was 2 µM [rising, partial curve].
Take `C(=N\Nc1ncnc2sc3c(c12)CCC3)/c1cccs1`: the AC50 under setting [1] is 10 µM [falling, partial curve] and the AC50 under setting [2] was 5.62 µM [falling, full curve].
As for `Cc1ccc(NC(=O)Cn2nnc(-c3ccccc3NC(=O)c3cccs3)n2)cc1`, the AC50 under setting [2] is 2 µM [rising, full curve].
Take `O=c1oc2ccccc2cc1-c1csc(Cc2nc(-c3ccc(Br)cc3)cs2)n1`: under setting [2], the AC50 is 3.55 µM [rising, single point].
Consider `O=C(CSc1nnnn1-c1ccccc1Cl)Nc1ccc2c(c1)OCCO2`, for which the AC50 under setting [2] was 12.6 µM [rising, single point].
Turning to `N#C/C(=C\c1cccc(O)c1)C(=O)Nc1ccc2c(c1)OCCO2`, the AC50 under setting [1] was 14.1 µM [falling, partial curve] and the AC50 under setting [2] was 35.5 µM [falling, partial curve, poor fit].
`C=CCn1c(SCC(=O)c2cccs2)nc2sc(CC)cc2c1=O`: the AC50 under setting [1] is 35.5 µM [rising, single point].
In the case of `CCOc1ccc(-n2c(SCC(=O)NC(C)CC)nc3n[nH]c(C)c3c2=N)cc1` (stereo not given), the AC50 was 1.78 µM [rising, full curve, poor fit] under setting [1] and 3.55 µM [rising, full curve, poor fit] under setting [2].
In the case of `CN(C)CCCCOc1ccc(Br)cc1Cl`, the AC50 under setting [2] is 0.112 µM [rising, full curve].
Regarding `Cc1cccc(N=Nc2c(N)n[nH]c2-c2ccc(Cl)cc2)c1`, the AC50 by setting is: under setting [1], 0.0316 µM [falling, single point]; under setting [2], 0.1 µM [falling, partial curve].
`O=C(CCc1nc(-c2ccccc2F)no1)NC1CCCCCC1`: under setting [2], the AC50 was 14.1 µM [rising, single point].
`CCCSC1=N/C(=C/c2ccsc2)C(=O)N1c1ccccc1`: the AC50 under setting [2] is 7.94 µM [rising, partial curve].
Turning to `C/C(=N\NC(=O)CSCc1ccc([N+](=O)[O-])cc1)c1cccc(Br)c1`, the half-maximal activity concentration (AC50) under setting [2] was 12.6 µM [rising, partial curve, poor fit].
Take `COc1ccccc1CCn1c(=O)cnc2cncnc21`: the AC50 was 6.31 µM [falling, full curve] under setting [1] and 6.31 µM [falling, full curve] under setting [2].
For the compound `COc1ccccc1CC(=O)N1CCN(c2ccc([N+](=O)[O-])cc2)CC1`, the AC50 under setting [2] was 0.282 µM [falling, full curve].
As for `Clc1ccc2nc(C3CCN(Cc4nnnn4C4CCCCC4)CC3)[nH]c2c1`, the AC50 under setting [2] was 22.4 µM [rising, single point].
Consider `COc1ccc(N2C(=O)CC2(C#N)c2ccc(OCc3ccccc3)cc2)cc1` (stereo not given), for which the AC50 is 7.94 µM [rising, partial curve] under setting [1] and 28.2 µM [rising, single point] under setting [2].
As to `Cc1[nH]c2ccccc2c1C(=O)C(=O)NCCC1=CCCCC1`, the AC50 by setting is: under setting [1], 0.158 µM [falling, full curve, poor fit]; under setting [2], 3.55 µM [falling, single point].
Turning to `CCOC(=O)N1CCN(c2ncnc3c2[nH]c2ccc(F)cc23)CC1`, the AC50 under setting [1] is 7.08 µM [rising, partial curve, poor fit] and the AC50 under setting [2] is 7.08 µM [rising, full curve].
Regarding `Cc1ccccc1NCC(=O)N/N=C\c1ccc2c(c1)OCO2`, the AC50 reads like this: under setting [1], 35.5 µM [rising, partial curve, poor fit]; under setting [2], 12.6 µM [rising, partial curve].
Consider `N#CC(C(=O)NC1CCCCC1)c1nc2ccccc2nc1N1CCN(c2ccccc2F)CC1` (stereo not given), for which the AC50 under setting [2] was 5.62 µM [rising, single point].
Take `Cc1cc(S(=O)(=O)N2CCN=C2c2ccccc2)c(Cl)cc1Cl`: under setting [2], the AC50 was 7.08 µM [rising, full curve, poor fit].
The same measure, in the same setting: then `O=C(Nc1ccc2ccccc2c1)NC1CCS(=O)(=O)C1` (stereo not given), with 0.0224 µM [falling, full curve]; and `COc1ccc(Oc2ccc(NC(=O)c3ccccc3C)cc2)cc1`, with 0.00447 µM [falling, full curve, poor fit]; and `COc1ccccc1/C=C1\SC(=O)N(CCC(=O)NNC(=O)c2ccccc2Cl)C1=O`, with 6.31 µM [rising, single point].
Turning to `Cc1ccc(Nc2nc(N)c(C#N)c(CC#N)c2C#N)cc1`, the AC50 is, setting by setting: under setting [1], 15.8 µM [falling, partial curve, poor fit]; under setting [2], 17.8 µM [falling, partial curve].
On to `COC(=O)c1ccccc1NC1=C/C(=N\S(=O)(=O)c2cccs2)c2ccccc2C1=O`, for which the concentration at half-maximal activity (AC50) reads like this: under setting [1], 35.5 µM [falling, single point]; under setting [2], 35.5 µM [falling, single point].
For `Cc1c(C(=O)NCc2ccc3c(c2)OCO3)oc2ccccc12`, the AC50 under setting [2] is 12.6 µM [rising, partial curve, poor fit].
